In article PMC12173946:
No constants are given. Whether binding was seen depends on the method and setting. Binding seen in cells or lysates may run through a third protein. Some binding calls cover weakened binding; strength is not graded here. For some of these results: Where a sequence is shown, tags or fusion partners need not be part of it.

Chains of the proteins cited; added tags and fusions are not shown.
UniProt P05556: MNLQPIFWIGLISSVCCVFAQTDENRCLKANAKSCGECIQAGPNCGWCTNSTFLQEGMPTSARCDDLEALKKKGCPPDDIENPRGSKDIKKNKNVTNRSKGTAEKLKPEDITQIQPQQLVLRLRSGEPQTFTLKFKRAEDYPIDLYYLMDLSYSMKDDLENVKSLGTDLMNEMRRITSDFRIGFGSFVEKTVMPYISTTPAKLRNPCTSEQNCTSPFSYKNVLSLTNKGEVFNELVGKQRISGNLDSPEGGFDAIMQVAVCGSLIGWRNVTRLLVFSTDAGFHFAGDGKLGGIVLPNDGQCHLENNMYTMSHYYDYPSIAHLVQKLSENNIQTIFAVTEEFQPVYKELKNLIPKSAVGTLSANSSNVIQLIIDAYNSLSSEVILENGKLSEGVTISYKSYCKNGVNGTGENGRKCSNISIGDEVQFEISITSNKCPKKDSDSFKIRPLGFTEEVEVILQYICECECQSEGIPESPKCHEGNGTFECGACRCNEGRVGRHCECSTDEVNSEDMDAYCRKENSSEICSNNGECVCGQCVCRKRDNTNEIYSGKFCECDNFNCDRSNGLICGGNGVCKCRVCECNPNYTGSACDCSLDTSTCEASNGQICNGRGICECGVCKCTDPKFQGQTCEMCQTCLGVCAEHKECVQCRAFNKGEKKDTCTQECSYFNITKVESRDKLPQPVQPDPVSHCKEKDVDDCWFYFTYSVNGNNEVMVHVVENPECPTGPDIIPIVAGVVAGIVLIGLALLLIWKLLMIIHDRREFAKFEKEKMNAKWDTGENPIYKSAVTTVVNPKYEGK
UniProt Q14247: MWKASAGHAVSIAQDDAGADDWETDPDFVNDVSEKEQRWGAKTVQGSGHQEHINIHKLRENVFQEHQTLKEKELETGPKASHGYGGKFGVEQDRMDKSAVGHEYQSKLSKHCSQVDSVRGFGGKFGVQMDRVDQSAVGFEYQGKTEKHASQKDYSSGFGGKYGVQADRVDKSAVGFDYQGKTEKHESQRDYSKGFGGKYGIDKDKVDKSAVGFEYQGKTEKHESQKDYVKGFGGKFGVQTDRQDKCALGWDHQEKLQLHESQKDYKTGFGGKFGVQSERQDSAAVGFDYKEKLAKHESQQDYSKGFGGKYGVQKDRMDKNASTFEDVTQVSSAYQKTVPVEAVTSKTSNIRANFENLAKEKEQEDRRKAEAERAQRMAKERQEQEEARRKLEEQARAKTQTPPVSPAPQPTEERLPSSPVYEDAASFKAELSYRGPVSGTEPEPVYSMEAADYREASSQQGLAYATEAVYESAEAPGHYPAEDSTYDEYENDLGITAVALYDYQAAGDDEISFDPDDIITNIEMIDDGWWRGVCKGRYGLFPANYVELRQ

Assays:
[1] = molecular target: mRuby2-tagged ITGB1 wild-type (integrin β1) (UniProt P05556); experiment: FRET or BRET; intermolecular frequency-domain FLIM–FRET in MM231 shβ1 cells stably re-expressing ITGB1(WT or YYFF)–mRuby2 (acceptor), transfected with a Clover- or GFP-tagged donor; apparent FRET efficiency per cell; for the PTPs and Clover alone with or without VO4^3− (100 μM, 2 h)
mScarlet–TKS5 = molecular target: T1, mScarlet–TKS5 (UniProt Q5TCZ1); experiment: FRET or BRET; intermolecular FLIM–FRET of tagged protein pairs (Clover or mEmerald donor, mRFP or mScarlet acceptor); mScarlet alone with the donor-tagged protein as negative control
T1 sequence: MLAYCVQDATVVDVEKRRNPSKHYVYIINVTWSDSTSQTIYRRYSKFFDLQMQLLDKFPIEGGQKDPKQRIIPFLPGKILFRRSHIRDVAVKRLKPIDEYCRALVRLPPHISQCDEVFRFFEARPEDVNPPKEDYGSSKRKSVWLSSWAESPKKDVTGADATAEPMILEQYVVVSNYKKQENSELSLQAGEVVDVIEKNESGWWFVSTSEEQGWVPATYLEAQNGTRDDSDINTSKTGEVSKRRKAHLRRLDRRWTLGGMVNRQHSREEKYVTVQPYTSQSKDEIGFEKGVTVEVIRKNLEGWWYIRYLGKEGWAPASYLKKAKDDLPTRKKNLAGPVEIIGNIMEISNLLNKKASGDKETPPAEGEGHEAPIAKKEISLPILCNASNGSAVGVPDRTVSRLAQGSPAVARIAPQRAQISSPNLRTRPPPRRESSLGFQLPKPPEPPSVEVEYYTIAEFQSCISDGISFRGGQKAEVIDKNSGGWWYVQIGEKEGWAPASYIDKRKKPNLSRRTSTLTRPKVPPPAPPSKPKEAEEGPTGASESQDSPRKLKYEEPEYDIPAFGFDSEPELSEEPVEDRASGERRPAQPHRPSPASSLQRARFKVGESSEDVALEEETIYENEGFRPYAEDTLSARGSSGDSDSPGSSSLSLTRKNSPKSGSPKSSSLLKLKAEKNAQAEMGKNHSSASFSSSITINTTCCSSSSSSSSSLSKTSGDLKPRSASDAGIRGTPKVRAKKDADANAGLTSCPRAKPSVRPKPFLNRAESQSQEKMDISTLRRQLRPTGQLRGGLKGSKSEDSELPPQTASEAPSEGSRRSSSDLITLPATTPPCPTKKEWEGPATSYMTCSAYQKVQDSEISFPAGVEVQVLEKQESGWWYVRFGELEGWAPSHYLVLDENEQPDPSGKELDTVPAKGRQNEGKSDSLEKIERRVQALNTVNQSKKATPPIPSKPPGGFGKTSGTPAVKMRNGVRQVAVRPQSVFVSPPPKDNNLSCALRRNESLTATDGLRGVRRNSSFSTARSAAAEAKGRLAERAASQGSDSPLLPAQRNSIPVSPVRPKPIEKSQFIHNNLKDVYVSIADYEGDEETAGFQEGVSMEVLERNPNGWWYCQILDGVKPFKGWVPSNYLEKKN

[2] = molecular target: ITGB1-V1/Dok1-V2 complex (restored Venus) (UniProt P05556); experiment: co-IP; BiCAP immunoblot: GFP-trap IP of the ITGB1-V1/Dok1-V2 complex (Venus alone as control) from MM231 and HEK293T cells, blots for annexin A6, VPS35 and Cofilin
[3] = molecular target: ITGB1-V1/Dok1-V2 complex (restored Venus) (UniProt P05556); experiment: FRET or BRET; BiFC–FLIM–FRET in MM231 cells: restored Venus of ITGB1-V1/Dok1-V2 as donor, RFP- or mScarlet-tagged protein as acceptor; Venus alone as control
CTTN–mEmerald = CTTN–mEmerald (UniProt Q14247); experiment: FRET or BRET; intermolecular FLIM–FRET of tagged protein pairs (Clover or mEmerald donor, mRFP or mScarlet acceptor); mScarlet alone with the donor-tagged protein as negative control
ITGB1-V1 = ITGB1-V1 (UniProt P05556); experiment: split reporter; BiCAP: Venus halves V1 (on ITGB1) and V2 (on Dok1) complement in transfected cells; the restored Venus is captured on GFP-trap beads and both proteins are found (immunoblot, mass spectrometry)

B1: Dok1–Clover (protein, UniProt Q99704 1-481)
chain: MDGAVMEGPLFLQSQRFGTKRWRKTWAVLYPASPHGVARLEFFDHKGSSSGGGRGSSRRLDCKVIRLAECVSVAPVTVETPPEPGATAFRLDTAQRSHLLAADAPSSAAWVQTLCRNAFPKGSWTLAPTDNPPKLSALEMLENSLYSPTWEGSQFWVTVQRTEAAERCGLHGSYVLRVEAERLTLLTVGAQSQILEPLLSWPYTLLRRYGRDKVMFSFEAGRRCPSGPGTFTFQTAQGNDIFQAVETAIHRQKAQGKAGQGHDVLRADSHEGEVAEGKLPSPPGPQELLDSPPALYAEPLDSLRIAPCPSQDSLYSDPLDSTSAQAGEGVQRKKPLYWDLYEHAQQQLLKAKLTDPKEDPIYDEPEGLAPVPPQGLYDLPREPKDAWWCQARVKEEGYELPYNPATDDYAVPPPRSTKPLLAPKPQGPAFPEPGTATGSGIKSHNSALYSQVQKSGASGSWDCGLSRVGTDKTGVKSEGST
binding [1]: binds
binding (mScarlet–TKS5): binds

B2: annexin A6 (co-precipitated from cell lysate) (protein, UniProt P08133 1-673)
chain: MAKPAQGAKYRGSIHDFPGFDPNQDAEALYTAMKGFGSDKEAILDIITSRSNRQRQEVCQSYKSLYGKDLIADLKYELTGKFERLIVGLMRPPAYCDAKEIKDAISGIGTDEKCLIEILASRTNEQMHQLVAAYKDAYERDLEADIIGDTSGHFQKMLVVLLQGTREEDDVVSEDLVQQDVQDLYEAGELKWGTDEAQFIYILGNRSKQHLRLVFDEYLKTTGKPIEASIRGELSGDFEKLMLAVVKCIRSTPEYFAERLFKAMKGLGTRDNTLIRIMVSRSELDMLDIREIFRTKYEKSLYSMIKNDTSGEYKKTLLKLSGGDDDAAGQFFPEAAQVAYQMWELSAVARVELKGTVRPANDFNPDADAKALRKAMKGLGTDEDTIIDIITHRSNVQRQQIRQTFKSHFGRDLMTDLKSEISGDLARLILGLMMPPAHYDAKQLKKAMEGAGTDEKALIEILATRTNAEIRAINEAYKEDYHKSLEDALSSDTSGHFRRILISLATGHREEGGENLDQAREDAQVAAEILEIADTPSGDKTSLETRFMTILCTRSYPHLRRVFQEFIKMTNYDVEHTIKKEMSGDVRDAFVAIVQSVKNKPLFFADKLYKSMKGAGTDEKTLTRIMVSRSEIDLLNIRREFIEKYDKSLHQAIEGDTSGDFLKALLALCGGED
binding [2]: binds

B3: mScarlet-tagged Annexin A6 (protein, UniProt P08133 1-673)
chain: MAKPAQGAKYRGSIHDFPGFDPNQDAEALYTAMKGFGSDKEAILDIITSRSNRQRQEVCQSYKSLYGKDLIADLKYELTGKFERLIVGLMRPPAYCDAKEIKDAISGIGTDEKCLIEILASRTNEQMHQLVAAYKDAYERDLEADIIGDTSGHFQKMLVVLLQGTREEDDVVSEDLVQQDVQDLYEAGELKWGTDEAQFIYILGNRSKQHLRLVFDEYLKTTGKPIEASIRGELSGDFEKLMLAVVKCIRSTPEYFAERLFKAMKGLGTRDNTLIRIMVSRSELDMLDIREIFRTKYEKSLYSMIKNDTSGEYKKTLLKLSGGDDDAAGQFFPEAAQVAYQMWELSAVARVELKGTVRPANDFNPDADAKALRKAMKGLGTDEDTIIDIITHRSNVQRQQIRQTFKSHFGRDLMTDLKSEISGDLARLILGLMMPPAHYDAKQLKKAMEGAGTDEKALIEILATRTNAEIRAINEAYKEDYHKSLEDALSSDTSGHFRRILISLATGHREEGGENLDQAREDAQVAAEILEIADTPSGDKTSLETRFMTILCTRSYPHLRRVFQEFIKMTNYDVEHTIKKEMSGDVRDAFVAIVQSVKNKPLFFADKLYKSMKGAGTDEKTLTRIMVSRSEIDLLNIRREFIEKYDKSLHQAIEGDTSGDFLKALLALCGGED
binding [3]: binds

B4: Dok1–mScarlet (protein, UniProt Q99704 1-481)
chain: MDGAVMEGPLFLQSQRFGTKRWRKTWAVLYPASPHGVARLEFFDHKGSSSGGGRGSSRRLDCKVIRLAECVSVAPVTVETPPEPGATAFRLDTAQRSHLLAADAPSSAAWVQTLCRNAFPKGSWTLAPTDNPPKLSALEMLENSLYSPTWEGSQFWVTVQRTEAAERCGLHGSYVLRVEAERLTLLTVGAQSQILEPLLSWPYTLLRRYGRDKVMFSFEAGRRCPSGPGTFTFQTAQGNDIFQAVETAIHRQKAQGKAGQGHDVLRADSHEGEVAEGKLPSPPGPQELLDSPPALYAEPLDSLRIAPCPSQDSLYSDPLDSTSAQAGEGVQRKKPLYWDLYEHAQQQLLKAKLTDPKEDPIYDEPEGLAPVPPQGLYDLPREPKDAWWCQARVKEEGYELPYNPATDDYAVPPPRSTKPLLAPKPQGPAFPEPGTATGSGIKSHNSALYSQVQKSGASGSWDCGLSRVGTDKTGVKSEGST
binding (CTTN–mEmerald): binds

B5: PTP-PEST-Clover (enzyme, UniProt Q05209 1-780)
chain: MEQVEILRKFIQRVQAMKSPDHNGEDNFARDFMRLRRLSTKYRTEKIYPTATGEKEENVKKNRYKDILPFDHSRVKLTLKTPSQDSDYINANFIKGVYGPKAYVATQGPLANTVIDFWRMIWEYNVVIIVMACREFEMGRKKCERYWPLYGEDPITFAPFKISCEDEQARTDYFIRTLLLEFQNESRRLYQFHYVNWPDHDVPSSFDSILDMISLMRKYQEHEDVPICIHCSAGCGRTGAICAIDYTWNLLKAGKIPEEFNVFNLIQEMRTQRHSAVQTKEQYELVHRAIAQLFEKQLQLYEIHGAQKIADGVNEINTENMVSSIEPEKQDSPPPKPPRTRSCLVEGDAKEEILQPPEPHPVPPILTPSPPSAFPTVTTVWQDNDRYHPKPVLHMVSSEQHSADLNRNYSKSTELPGKNESTIEQIDKKLERNLSFEIKKVPLQEGPKSFDGNTLLNRGHAIKIKSASPCIADKISKPQELSSDLNVGDTSQNSCVDCSVTQSNKVSVTPPEESQNSDTPPRPDRLPLDEKGHVTWSFHGPENAIPIPDLSEGNSSDINYQTRKTVSLTPSPTTQVETPDLVDHDNTSPLFRTPLSFTNPLHSDDSDSDERNSDGAVTQNKTNISTASATVSAATSTESISTRKVLPMSIARHNIAGTTHSGAEKDVDVSEDSPPPLPERTPESFVLASEHNTPVRSEWSELQSQERSEQKKSEGLITSENEKCDHPAGGIHYEMCIECPPTFSDKREQISENPTEATDIGFGNRCGKPKGPRDPPSEWT
binding [1]: binds

B6: Dok1-V2 (protein, UniProt Q99704 1-481)
chain: MDGAVMEGPLFLQSQRFGTKRWRKTWAVLYPASPHGVARLEFFDHKGSSSGGGRGSSRRLDCKVIRLAECVSVAPVTVETPPEPGATAFRLDTAQRSHLLAADAPSSAAWVQTLCRNAFPKGSWTLAPTDNPPKLSALEMLENSLYSPTWEGSQFWVTVQRTEAAERCGLHGSYVLRVEAERLTLLTVGAQSQILEPLLSWPYTLLRRYGRDKVMFSFEAGRRCPSGPGTFTFQTAQGNDIFQAVETAIHRQKAQGKAGQGHDVLRADSHEGEVAEGKLPSPPGPQELLDSPPALYAEPLDSLRIAPCPSQDSLYSDPLDSTSAQAGEGVQRKKPLYWDLYEHAQQQLLKAKLTDPKEDPIYDEPEGLAPVPPQGLYDLPREPKDAWWCQARVKEEGYELPYNPATDDYAVPPPRSTKPLLAPKPQGPAFPEPGTATGSGIKSHNSALYSQVQKSGASGSWDCGLSRVGTDKTGVKSEGST
binding (ITGB1-V1): binds
